Where a name gives a salt, the structure may show the parent alone. The campaign covered roughly 5,300 compounds. About 130 (2.5%) showed an effect of 50% or more. This is one part of the list. Bridge positions count the residues as written; N and C are the ends. Square brackets hold non-standard residues; d marks the D form. Peptide text beside a SMILES is read from it. hArg = N=C(N)NCCCC[CH](N)C(=O)O; Mpa = O=C(O)CCS
tested on: M. mycetomatis strain mm55; conditions: primary screen, metabolic activity vs growth control; 96 h, 2 µM; inhibitor

| Structure (SMILES) | % viability |
| --- | --- |
| COc1cc(C(=O)NCC2(N(C)C)CCCC2)cc(OC)c1OCc1ccccc1 [ONC0001731, org25543] | 88.88% |
| COc1ccc(F)c(F)c1C(=O)c1cnc(NC2CCN(S(C)(=O)=O)CC2)nc1N [ONC0005102, r547] | 97.1% |
| CN(C)N(C)C(=O)[C@@]1(Cc2ccccc2)CCCN(C(=O)[C@@H](Cc2c[nH]c3ccccc23)NC(=O)C(C)(C)N)C1 [ONC0000737, anamorelin] | 94.91% |
| CCOC(=O)[C@H](CCc1ccccc1)N[C@H]1CS[C@H](c2cccs2)CN(CC(=O)O)C1=O [ONC0004925, temocapril hcl] | 86.58% |
| Cl.c1ccc(C2CNCc3ccccc32)cc1 (centres unmarked) [ONC0002642, 4phenyl1234tetrahydroisoquinoline] | 64.91% |
| c1ccc2c(c1)[I+]c1ccccc1-2 [ONC0002720, diphenyleneiodonium] | 44.4% |
| NC(=O)c1ccc([N+](=O)[O-])cc1Cl [ONC0002900, aklomide] | 107.5% |
| CC(C)[C@H](N)C(=O)OCC(CO)OCn1cnc2c(=O)nc(N)[nH]c21 (some centres unmarked) [ONC0002343, valganciclovir hydrochloride] | 62.06% |
| CCN(CC)CC1CCN(c2ncc3ncnc(Nc4ccc(F)c(Cl)c4)c3n2)CC1 [ONC0003775, bibu1361] | 116.3% |
| CCC(=O)O[C@]1(C(=O)CCl)[C@@H](C)C[C@H]2[C@@H]3CCC4=CC(=O)C=C[C@]4(C)[C@@]3(F)[C@@H](O)C[C@@]21C [ONC0002120, clobetasolpropionate] | 104.9% |
| O=C1C[C@@H](c2ccc(O)cc2)Oc2cc(O)cc(O)c21 [ONC0005207, naringenin] | 125.4% |
| COc1cc2nc(N3CCN(C(=O)C(C)OC)CC3)nc(N)c2cc1OC (centres unmarked) [ONC0005626, metazosin] | 74.99% |
| COc1ccc(OC)c(C2C(C#N)=C(N)Oc3[nH]nc(-c4ccc5ccccc5c4)c32)c1 (centres unmarked) [ONC0001020, rbc8] | 97.4% |
| c1ccc([C@H]2CN3CCSC3=N2)cc1 [ONC0002841, levamisole hydrochloride] | 88.45% |
| O=S(=O)(O)c1cc(O)ccc1O [ONC0004826, ethamsylate] | 62.39% |
| CC(O)COC[C@H]1O[C@@H]2O[C@H]3[C@H](O)[C@@H](O)[C@@H](O[C@H]4[C@H](O)[C@@H](O)[C@@H](O[C@H]5[C@H](O)[C@@H](O)[C@@H](O[C@H]6[C@H](O)[C@@H](O)[C@@H](O[C@H]7[C@H](O)[C@@H](O)[C@@H](O[C@H]8[C@H](O)[C@@H](O)[C@@H](O[C@H]1[C@H](O)[C@H]2O)O[C@@H]8COCC(C)O)O[C@@H]7COCC(C)O)O[C@@H]6COCC(C)O)O[C@@H]5COCC(C)O)O[C@@H]4COCC(C)O)O[C@@H]3COCC(C)O (some centres unmarked) [ONC0003826, hydroxypropylbetacyclodextrin] | 73.6% |
| Cc1c(O)c(=O)ccn1C [ONC0004308, deferiprone] | 66.82% |
| Cc1ccc([N+](=O)[O-])cc1S(=O)(=O)N(C)C [ONC0001713, brl50481] | 59.63% |
| CC(=O)O[C@]1(C(C)=O)CCC2C3C[C@H](C)C4=CC(=O)CC[C@]4(C)C3CC[C@@]21C (some centres unmarked) [ONC0000456, medroxyprogesterone acetate] | 83.76% |

| Structure (SMILES) | % viability |
| --- | --- |
| C[C@H]1CNCCCN1S(=O)(=O)c1cccc2cncc(F)c12 [ONC0002046, ripasudil] | 63.17% |
| CCCc1c(OCC(O)COc2ccc3c(=O)cc(C(=O)O)oc3c2CCC)ccc(C(C)=O)c1O (centres unmarked) [ONC0003060, fpl55712] | 135.5% |
| CC(C)NCC(O)c1ccc2ccccc2c1 (centres unmarked) [ONC0002423, pronetalol hydrochloride] | 84.34% |
| O=C(O)c1cc(-c2ccccc2)nc2ccccc12 [ONC0004274, cinchophen] | 82.36% |
| CC1=C[C@H](O)CC(C)(C)[C@H]1/C=C/C(C)=C/C=C/C(C)=C/C=C/C=C(C)/C=C/C=C(C)/C=C/C1=C(C)C[C@@H](O)CC1(C)C [ONC0005587, lutein] | 92.5% |
| CCc1nc2c(C)nc(C)cc2n1-c1ccc(CCNC(=O)NS(=O)(=O)c2ccc(C)cc2)cc1 [ONC0001355, grapiprant] | 113.8% |
| Cc1ccc2[nH]c(=O)c(C3=NN(C(=O)CCC(=O)O)C(c4ccc(Br)cc4)C3)c(-c3ccccc3)c2c1 (centres unmarked) [ONC0000391, dqp1105] | 69.74% |
| O=C(NCCN1CCC2(CC1)C(=O)NCN2c1cccc(F)c1)c1ccc(F)c(F)c1 [ONC0004390, ml298] | 135.4% |
| N=C(N)NCCCC[C@@H]1NC(=O)CCSSC[C@@H](C(N)=O)NC(=O)[C@@H]2CCCN2C(=O)[C@H](Cc2c[nH]c3ccccc23)NC(=O)[C@H](CC(=O)O)NC(=O)CNC1=O [ONC0003468, eptifibatide] ([Mpa][hArg]GDWPC-NH2; disulfide 1-7; configuration not given here) | 84.45% |
| CCn1c(=O)c(-c2cc[nH]n2)cc2c(C)nc(N)nc21 [ONC0001056, voxtalisib] | 91.92% |
| COc1cc2c(cc1-c1c(C)noc1C)ncc1[nH]c(=O)n([C@H](C)c3ccccn3)c12 [ONC0004556, ibet151 gsk1210151a] | 61.32% |
| CN(C)c1nc(N(C)C)nc(N(C)C)n1 [ONC0002834, altretamine] | 101.7% |
| N[C@H](C(=O)O)[C@H](O)c1ccc(O)c(O)c1 [ONC0004609, droxidopa ldops] | 70.92% |
| O=C(OC(C(F)(F)F)C(F)(F)F)N1CCN(Cc2cccc(Oc3ccccc3)c2)CC1 [ONC0000369, jw642] | 58.25% |
| Cc1ccc(S(=O)(=O)N2CCC[C@H]2c2ccc(F)cc2)cc1 [ONC0002650, ro677476] | 94.08% |
| N#Cc1c(N)nc(SCC(N)=O)c(C#N)c1-c1ccc(OCC2CC2)cc1 [ONC0002661, bay606583] | 66.72% |
| COc1cc([C@@H]2c3cc4c(cc3[C@@H](O[C@@H]3O[C@@H]5CO[C@@H](C)O[C@H]5[C@H](O)[C@H]3O)[C@H]3COC(=O)[C@H]23)OCO4)cc(OC)c1O [ONC0001024, etoposide] | 91.87% |
| O=[N+]([O-])c1cccc2cn[nH]c12 [ONC0002478, 7nitroindazole] | 54.78% |
| COc1ccccc1OCC(O)CN1CCN(CC(=O)Nc2c(C)cccc2C)CC1 (centres unmarked) [ONC0004190, ranolazine dihydrochloride] | 156.1% |

| Structure (SMILES) | % viability |
| --- | --- |
| O=C1c2ccc(Nc3ccc(F)cc3F)cc2CCc2ccc(OC[C@H](O)CO)cc21 [ONC0005139, skepinonel] | 82.58% |
| O=C(O)/C=C\c1c[nH]cn1 [ONC0002668, cisurocanic acid] | 45.73% |
| CC[C@@]1(O)C(=O)OCc2c1cc1n(c2=O)Cc2cc3c(N)cccc3nc2-1 [ONC0005467, 9aminocamptothecin] | 102.4% |
| O=C(Oc1ccc(Br)cc1)N1CCN2CCC1CC2 [ONC0001306, ssr180711] | 70.31% |
| CCn1cc(-c2cccc(C(F)(F)F)c2)c2sc(C(=N)NC3CCS(=O)(=O)CC3)cc2c1=O [ONC0001085, ibrd9] | 45.4% |
| CCCCCCOC(=O)CCC(=O)CN [ONC0001190, hexaminolevulinate hydrochloride] | 109.5% |
| COc1ccc(/C=C/CCCCOc2ccc(C(=O)c3cccc(C(=O)O)c3)cc2CCC(=O)O)cc1 [ONC0003815, ly223982] | 21.75% |
| CO/N=C(\C(=O)N[C@@H]1C(=O)N2C(C(=O)OCOC(=O)C(C)(C)C)=C(C)CS[C@H]12)c1csc(N)n1 [ONC0002071, cefetamet pivoxil hydrochloride] | 73.19% |
| O=C(O)c1cc(C(=O)O)c(C(=O)N(Cc2cccc(Oc3ccccc3)c2)[C@H]2CCCc3ccccc32)cc1C(=O)O [ONC0002107, a317491] | 79.8% |
| CS(=O)(=O)OCOS(C)(=O)=O [ONC0003724, mdms] | 108.7% |
| CNC(=O)ON(C(C)=O)C(=O)NC [ONC0003740, caracemide] | 136.5% |
| C[C@H]1C[C@@H]2[C@H]([C@@H](O)C[C@@]3(C)[C@H]2CC[C@]3(O)C(=O)CO)[C@@]2(C)C=CC(=O)C=C12 [ONC0000373, methylprednisolone] | 59.2% |
| CC[C@@H](C)Nc1cc(C(=O)NC2CC3CCC(C2)N3c2ccc(C(=O)C3CC3)cn2)c(C)cc1C(N)=O (some centres unmarked) [ONC0005023, xl888] | 77.27% |
| N=C(N)c1ccc2cc(OC(=O)c3ccc(N=C(N)N)cc3)ccc2c1 [ONC0004901, nafamostat mesylate] | 82.85% |
| O=C(O)/C=C/c1ccc(O)cc1 [ONC0002170, naringeninicacid] | 62.68% |
| CC1CCN(C(c2ccc(F)cc2)c2ccc(C(C)C(=O)O)cc2-c2ccc(C(F)(F)F)cc2)CC1 (centres unmarked) [ONC0002784, tce5006] | 116.6% |
| CCCCc1nc(Cl)c(CO)n1Cc1ccc(-c2ccccc2-c2nn[nH]n2)cc1 [ONC0002965, losartan] | 77.45% |

Reprinted from the results shown for reference:

| Structure (SMILES) | % viability |
| --- | --- |
| CCN(CC)CC1CCN(c2ncc3ncnc(Nc4ccc(F)c(Cl)c4)c3n2)CC1 [ONC0003775, bibu1361] | 116.3% |
| CCC(=O)O[C@]1(C(=O)CCl)[C@@H](C)C[C@H]2[C@@H]3CCC4=CC(=O)C=C[C@]4(C)[C@@]3(F)[C@@H](O)C[C@@]21C [ONC0002120, clobetasolpropionate] | 104.9% |
| O=C1C[C@@H](c2ccc(O)cc2)Oc2cc(O)cc(O)c21 [ONC0005207, naringenin] | 125.4% |
| COc1cc2nc(N3CCN(C(=O)C(C)OC)CC3)nc(N)c2cc1OC (centres unmarked) [ONC0005626, metazosin] | 74.99% |
| COc1ccc(OC)c(C2C(C#N)=C(N)Oc3[nH]nc(-c4ccc5ccccc5c4)c32)c1 (centres unmarked) [ONC0001020, rbc8] | 97.4% |
| c1ccc([C@H]2CN3CCSC3=N2)cc1 [ONC0002841, levamisole hydrochloride] | 88.45% |
| O=S(=O)(O)c1cc(O)ccc1O [ONC0004826, ethamsylate] | 62.39% |
| CC(O)COC[C@H]1O[C@@H]2O[C@H]3[C@H](O)[C@@H](O)[C@@H](O[C@H]4[C@H](O)[C@@H](O)[C@@H](O[C@H]5[C@H](O)[C@@H](O)[C@@H](O[C@H]6[C@H](O)[C@@H](O)[C@@H](O[C@H]7[C@H](O)[C@@H](O)[C@@H](O[C@H]8[C@H](O)[C@@H](O)[C@@H](O[C@H]1[C@H](O)[C@H]2O)O[C@@H]8COCC(C)O)O[C@@H]7COCC(C)O)O[C@@H]6COCC(C)O)O[C@@H]5COCC(C)O)O[C@@H]4COCC(C)O)O[C@@H]3COCC(C)O (some centres unmarked) [ONC0003826, hydroxypropylbetacyclodextrin] | 73.6% |
| Cc1c(O)c(=O)ccn1C [ONC0004308, deferiprone] | 66.82% |
| Cc1ccc([N+](=O)[O-])cc1S(=O)(=O)N(C)C [ONC0001713, brl50481] | 59.63% |
| CC(=O)O[C@]1(C(C)=O)CCC2C3C[C@H](C)C4=CC(=O)CC[C@]4(C)C3CC[C@@]21C (some centres unmarked) [ONC0000456, medroxyprogesterone acetate] | 83.76% |
| C[C@H]1CNCCCN1S(=O)(=O)c1cccc2cncc(F)c12 [ONC0002046, ripasudil] | 63.17% |
| CCCc1c(OCC(O)COc2ccc3c(=O)cc(C(=O)O)oc3c2CCC)ccc(C(C)=O)c1O (centres unmarked) [ONC0003060, fpl55712] | 135.5% |
| CC(C)NCC(O)c1ccc2ccccc2c1 (centres unmarked) [ONC0002423, pronetalol hydrochloride] | 84.34% |
| O=C(O)c1cc(-c2ccccc2)nc2ccccc12 [ONC0004274, cinchophen] | 82.36% |
| CC1=C[C@H](O)CC(C)(C)[C@H]1/C=C/C(C)=C/C=C/C(C)=C/C=C/C=C(C)/C=C/C=C(C)/C=C/C1=C(C)C[C@@H](O)CC1(C)C [ONC0005587, lutein] | 92.5% |

Source: article PMC12670160, “A drug-repurposing screen of FDA- and EMA-approved drugs identifies two NF-κB inhibitors active against eumycetoma” (Journal of Antimicrobial Chemotherapy, 2025)
